In article PMC7049725:
No constants are given. Whether binding was seen depends on the method and setting. Binding seen in cells or lysates may run through a third protein. Here binding means that the protein was enriched with, or labelled near, the bait; the list need not be complete. Values belong to the molecule of their own block, whether it stands above or below them.

Protein sequences, listed by entry. Tags and fused reporters are not part of them.
UniProt O60293: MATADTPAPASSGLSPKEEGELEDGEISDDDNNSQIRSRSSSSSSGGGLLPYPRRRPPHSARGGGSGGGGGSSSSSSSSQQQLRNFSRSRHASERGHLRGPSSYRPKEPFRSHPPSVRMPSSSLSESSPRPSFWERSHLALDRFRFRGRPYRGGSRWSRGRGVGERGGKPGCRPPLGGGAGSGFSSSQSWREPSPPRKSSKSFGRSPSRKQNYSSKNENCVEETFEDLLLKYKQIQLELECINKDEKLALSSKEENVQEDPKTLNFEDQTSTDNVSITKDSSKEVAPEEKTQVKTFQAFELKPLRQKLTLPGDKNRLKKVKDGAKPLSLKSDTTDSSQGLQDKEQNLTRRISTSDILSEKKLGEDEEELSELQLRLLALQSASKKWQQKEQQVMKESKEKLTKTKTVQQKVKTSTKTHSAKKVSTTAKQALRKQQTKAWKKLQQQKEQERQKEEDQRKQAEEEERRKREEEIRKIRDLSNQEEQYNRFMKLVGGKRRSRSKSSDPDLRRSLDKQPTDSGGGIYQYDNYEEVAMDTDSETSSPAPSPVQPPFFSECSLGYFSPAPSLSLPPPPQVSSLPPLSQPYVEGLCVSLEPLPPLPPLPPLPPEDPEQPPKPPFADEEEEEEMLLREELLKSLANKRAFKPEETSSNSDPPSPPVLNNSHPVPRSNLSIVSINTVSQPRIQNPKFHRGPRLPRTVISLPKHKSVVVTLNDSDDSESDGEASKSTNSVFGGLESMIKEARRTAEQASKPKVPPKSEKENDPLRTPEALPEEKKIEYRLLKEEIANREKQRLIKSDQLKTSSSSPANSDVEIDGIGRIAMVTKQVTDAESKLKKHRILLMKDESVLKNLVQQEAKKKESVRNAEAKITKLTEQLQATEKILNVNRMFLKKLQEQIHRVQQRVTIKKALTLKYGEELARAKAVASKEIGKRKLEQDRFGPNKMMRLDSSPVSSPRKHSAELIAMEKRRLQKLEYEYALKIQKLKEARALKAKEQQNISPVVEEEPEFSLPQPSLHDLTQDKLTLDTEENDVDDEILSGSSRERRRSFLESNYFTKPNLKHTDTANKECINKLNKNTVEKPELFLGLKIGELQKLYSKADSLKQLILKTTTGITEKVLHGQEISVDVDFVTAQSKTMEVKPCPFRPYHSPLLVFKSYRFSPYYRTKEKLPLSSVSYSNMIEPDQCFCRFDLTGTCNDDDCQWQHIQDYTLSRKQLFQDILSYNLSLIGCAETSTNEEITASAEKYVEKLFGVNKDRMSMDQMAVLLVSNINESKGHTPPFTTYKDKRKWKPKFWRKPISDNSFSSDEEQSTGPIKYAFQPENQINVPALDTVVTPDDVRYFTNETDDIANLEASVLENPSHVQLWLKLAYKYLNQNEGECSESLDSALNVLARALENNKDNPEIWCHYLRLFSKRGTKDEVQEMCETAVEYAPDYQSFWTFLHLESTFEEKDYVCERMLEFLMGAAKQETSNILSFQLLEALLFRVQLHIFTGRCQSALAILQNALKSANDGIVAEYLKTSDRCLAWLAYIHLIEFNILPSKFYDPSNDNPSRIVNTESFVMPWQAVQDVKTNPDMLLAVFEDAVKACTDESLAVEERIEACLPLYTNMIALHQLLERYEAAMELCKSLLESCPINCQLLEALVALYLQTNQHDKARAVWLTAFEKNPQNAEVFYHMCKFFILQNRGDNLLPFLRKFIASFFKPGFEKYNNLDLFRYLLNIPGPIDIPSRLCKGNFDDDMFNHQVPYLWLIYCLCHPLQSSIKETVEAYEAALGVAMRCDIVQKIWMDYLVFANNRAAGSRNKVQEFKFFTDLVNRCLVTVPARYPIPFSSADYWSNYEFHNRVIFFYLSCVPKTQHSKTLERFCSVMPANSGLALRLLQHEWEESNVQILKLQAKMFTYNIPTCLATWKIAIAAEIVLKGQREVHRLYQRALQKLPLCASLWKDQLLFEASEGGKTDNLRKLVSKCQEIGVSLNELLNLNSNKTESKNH
UniProt Q6NZY4: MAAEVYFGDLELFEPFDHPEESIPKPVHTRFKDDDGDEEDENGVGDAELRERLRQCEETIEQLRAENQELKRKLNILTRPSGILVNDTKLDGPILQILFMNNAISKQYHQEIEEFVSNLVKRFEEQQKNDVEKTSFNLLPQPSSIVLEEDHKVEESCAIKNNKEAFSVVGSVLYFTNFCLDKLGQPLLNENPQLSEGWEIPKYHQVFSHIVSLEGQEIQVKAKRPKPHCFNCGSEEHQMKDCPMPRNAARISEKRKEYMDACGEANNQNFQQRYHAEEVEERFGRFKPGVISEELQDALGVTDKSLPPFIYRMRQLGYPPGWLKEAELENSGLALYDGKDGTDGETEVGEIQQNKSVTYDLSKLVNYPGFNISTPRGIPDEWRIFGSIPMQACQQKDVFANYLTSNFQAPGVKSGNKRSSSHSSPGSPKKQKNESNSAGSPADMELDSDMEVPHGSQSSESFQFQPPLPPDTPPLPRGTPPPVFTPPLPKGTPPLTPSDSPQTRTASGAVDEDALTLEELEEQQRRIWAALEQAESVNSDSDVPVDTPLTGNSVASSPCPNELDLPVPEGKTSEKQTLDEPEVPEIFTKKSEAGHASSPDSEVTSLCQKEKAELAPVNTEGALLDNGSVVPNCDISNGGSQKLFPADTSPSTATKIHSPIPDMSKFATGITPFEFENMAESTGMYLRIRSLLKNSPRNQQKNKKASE

What was measured:
MTR4-LAP (human) = MTR4-LAP (human) (UniProt P42285); experiment: affinity purification with mass spectrometry; MTR4-LAP captured with anti-GFP llama polyclonal antibodies on Dynabeads from HeLa Kyoto extract (20 mM HEPES-KOH pH 7.4, 0.5% Triton X-100, 150 mM NaCl), 4°C 30 min; label-free, triplicates, against a LAP-only control; cells treated with siLUC (control) or siZCCHC8
MTR4-LAP (human), P42285 = target: T1, MTR4-LAP (human), P42285; experiment: as above; settings: remark: other sources report otherwise
T1 chain: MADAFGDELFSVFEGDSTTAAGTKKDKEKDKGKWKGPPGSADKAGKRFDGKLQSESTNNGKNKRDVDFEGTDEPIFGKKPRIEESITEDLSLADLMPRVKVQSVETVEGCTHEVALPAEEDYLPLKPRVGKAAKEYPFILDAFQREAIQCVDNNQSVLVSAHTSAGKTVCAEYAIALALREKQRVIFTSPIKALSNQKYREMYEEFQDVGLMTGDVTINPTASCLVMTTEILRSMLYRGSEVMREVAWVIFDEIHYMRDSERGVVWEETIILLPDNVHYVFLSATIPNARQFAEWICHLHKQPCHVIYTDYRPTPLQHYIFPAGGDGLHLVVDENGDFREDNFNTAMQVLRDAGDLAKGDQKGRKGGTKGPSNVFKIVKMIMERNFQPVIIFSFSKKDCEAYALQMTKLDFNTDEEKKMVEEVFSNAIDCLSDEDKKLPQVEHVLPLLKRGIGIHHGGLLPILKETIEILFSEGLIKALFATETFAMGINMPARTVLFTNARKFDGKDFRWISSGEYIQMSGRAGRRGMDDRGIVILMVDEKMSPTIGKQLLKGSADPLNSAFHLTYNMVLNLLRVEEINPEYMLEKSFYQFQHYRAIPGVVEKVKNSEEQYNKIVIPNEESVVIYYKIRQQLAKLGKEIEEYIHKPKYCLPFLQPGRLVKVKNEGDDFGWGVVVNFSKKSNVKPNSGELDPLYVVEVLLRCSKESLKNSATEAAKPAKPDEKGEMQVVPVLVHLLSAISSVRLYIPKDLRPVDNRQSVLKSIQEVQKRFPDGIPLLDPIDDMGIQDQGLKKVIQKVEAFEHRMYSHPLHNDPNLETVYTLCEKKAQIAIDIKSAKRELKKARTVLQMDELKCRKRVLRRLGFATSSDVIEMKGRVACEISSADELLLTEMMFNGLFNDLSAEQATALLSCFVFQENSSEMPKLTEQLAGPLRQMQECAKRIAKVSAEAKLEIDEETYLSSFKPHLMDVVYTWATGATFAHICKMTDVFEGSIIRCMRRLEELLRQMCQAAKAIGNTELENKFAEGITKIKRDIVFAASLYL

B2: PABPN1, Q86U42 1-306 (protein)
chain: MAAAAAAAAAAGAAGGRGSGPGRRRHLVPGAGGEAGEGAPGGAGDYGNGLESEELEPEELLLEPEPEPEPEEEPPRPRAPPGAPGPGPGSGAPGSQEEEEEPGLVEGDPGDGAIEDPELEAIKARVREMEEEAEKLKELQNEVEKQMNMSPPPGNAGPVIMSIEEKMEADARSIYVGNVDYGATAEELEAHFHGCGSVNRVTILCDKFSGHPKGFAYIEFSDKESVRTSLALDESLFRGRQIKVIPKRTNRPGISTTDRGFPRARYRARTTNYNSSRSRFYSGFNSRPRGRVYRGRARATSWYSPY
binding (MTR4-LAP (human), P42285): binds

B3: ZC3H3 (protein, UniProt Q8IXZ2 1-948)
chain: MEEKEILRRQIRLLQGLIDDYKTLHGNAPAPGTPAASGWQPPTYHSGRAFSARYPRPSRRGYSSHHGPSWRKKYSLVNRPPGPSDPPADHAVRPLHGARGGQPPVPQQHVLERQVQLSQGQNVVIKVKPPSKSGSASASGAQRGSLEEFEETPWSDQRPREGEGEPPRGQLQPSRPTRARGTCSVEDPLLVCQKEPGKPRMVKSVGSVGDSPREPRRTVSESVIAVKASFPSSALPPRTGVALGRKLGSHSVASCAPQLLGDRRVDAGHTDQPVPSGSVGGPARPASGPRQAREASLVVTCRTNKFRKNNYKWVAASSKSPRVARRALSPRVAAENVCKASAGMANKVEKPQLIADPEPKPRKPATSSKPGSAPSKYKWKASSPSASSSSSFRWQSEASSKDHASQLSPVLSRSPSGDRPAVGHSGLKPLSGETPLSAYKVKSRTKIIRRRSSTSLPGDKKSGTSPAATAKSHLSLRRRQALRGKSSPVLKKTPNKGLVQVTTHRLCRLPPSRAHLPTKEASSLHAVRTAPTSKVIKTRYRIVKKTPASPLSAPPFPLSLPSWRARRLSLSRSLVLNRLRPVASGGGKAQPGSPWWRSKGYRCIGGVLYKVSANKLSKTSGQPSDAGSRPLLRTGRLDPAGSCSRSLASRAVQRSLAIIRQARQRREKRKEYCMYYNRFGRCNRGERCPYIHDPEKVAVCTRFVRGTCKKTDGTCPFSHHVSKEKMPVCSYFLKGICSNSNCPYSHVYVSRKAEVCSDFLKGYCPLGAKCKKKHTLLCPDFARRGACPRGAQCQLLHRTQKRHSRRAATSPAPGPSDATARSRVSASHGPRKPSASQRPTRQTPSSAALTAAAVAAPPHCPGGSASPSSSKASSSSSSSSSPPASLDHEAPSLQEAALAAACSNRLCKLPSFISLQSSPSPGAQPRVRAPRAPLTKDSGKPLHIKPRL
binding (MTR4-LAP (human)): binds

Results, then the molecule that gave them:

binding (MTR4-LAP (human)): binds
Molecule: ZFC3H1 (from UniProt O60293 1-1989)

binding (MTR4-LAP (human)): binds
Molecule: ZCCHC8 (from UniProt Q6NZY4 1-707)

binding (MTR4-LAP (human)): binds
B1: RBM27 (protein, UniProt Q9P2N5 1-1060)
chain: MLIEDVDALKSWLAKLLEPICDADPSALANYVVALVKKDKPEKELKAFCADQLDVFLQKETSGFVDKLFESLYTKNYLPLLEPVKPEPKPLVQEKEEIKEEVFQEPAEEERDGRKKKYPSPQKTRSESSERRTREKKREDGKWRDYDRYYERNELYREKYDWRRGRSKSRSKSRGLSRSRSRSRGRSKDRDPNRNVEHRERSKFKSERNDLESSYVPVSAPPPNSSEQYSSGAQSIPSTVTVIAPAHHSENTTESWSNYYNNHSSSNSFGRNLPPKRRCRDYDERGFCVLGDLCQFDHGNDPLVVDEVALPSMIPFPPPPPGLPPPPPPGMLMPPMPGPGPGPGPGPGPGPGPGPGPGHSMRLPVPQGHGQPPPSVVLPIPRPPITQSSLINSRDQPGTSAVPNLASVGTRLPPPLPQNLLYTVSERQPMYSREHGAAASERLQLGTPPPLLAARLVPPRNLMGSSIGYHTSVSSPTPLVPDTYEPDGYNPEAPSITSSGRSQYRQFFSRTQTQRPNLIGLTSGDMDVNPRAANIVIQTEPPVPVSINSNITRVVLEPDSRKRAMSGLEGPLTKKPWLGKQGNNNQNKPGFLRKNQYTNTKLEVKKIPQELNNITKLNEHFSKFGTIVNIQVAFKGDPEAALIQYLTNEEARKAISSTEAVLNNRFIRVLWHRENNEQPTLQSSAQLLLQQQQTLSHLSQQHHHLPQHLHQQQVLVAQSAPSTVHGGIQKMMSKPQTSGAYVLNKVPVKHRLGHAGGNQSDASHLLNQSGGAGEDCQIFSTPGHPKMIYSSSNLKTPSKLCSGSKSHDVQEVLKKKQEAMKLQQDMRKKRQEVLEKQIECQKMLISKLEKNKNMKPEERANIMKTLKELGEKISQLKDELKTSSAVSTPSKVKTKTEAQKELLDTELDLHKRLSSGEDTTELRKKLSQLQVEAARLGILPVGRGKTMSSQGRGRGRGRGGRGRGSLNHMVVDHRPKALTVGGFIEEEKEDLLQHFSTANQGPKFKDRRLQISWHKPKVPSISTETEEEEVKEEETETSDLFLPDDDDEDEDEYESRSWRR
